Experimental data as given in article PMC11477680.
For some of these results: A negative result means that nothing was seen under these conditions. For some of these results: For at least one entry, the source does not settle the construct or the ends of the probe.

Key:
[1] = molecular target: cardiac troponin I (cTnI) (UniProt P19429); assay: not stated (cited); conditions: 5'-SH-(C6) thiol linker; Aptamer immobilization: 20 mM Tris-HCl, 5 mM MgCl2, 50 mM NaCl, pH 7.4, 4 C; cTnI incubation 1 h (serum samples: 10% serum in 20 mM Tris-HCl, 150 mM NaCl, pH 7.4, 37 C); commercial protein; single-stranded DNA
[2] = tested on: hemoglobin (Hb); assay: electrochemical aptasensor (DPV); conditions: 1 ng/mL, negligible current change; 5'-SH-(C6) thiol linker; Aptamer immobilization: 20 mM Tris-HCl, 5 mM MgCl2, 50 mM NaCl, pH 7.4, 4 C; cTnI incubation 1 h (serum samples: 10% serum in 20 mM Tris-HCl, 150 mM NaCl, pH 7.4, 37 C); commercial protein; single-stranded DNA
[3] = molecular target: bovine serum albumin (BSA) (bovine) (UniProt P02769); assay: electrochemical aptasensor (DPV); conditions: 1 ng/mL, negligible current change; 5'-SH-(C6) thiol linker; Aptamer immobilization: 20 mM Tris-HCl, 5 mM MgCl2, 50 mM NaCl, pH 7.4, 4 C; cTnI incubation 1 h (serum samples: 10% serum in 20 mM Tris-HCl, 150 mM NaCl, pH 7.4, 37 C); commercial protein; single-stranded DNA
[4] = tested on: cardiac troponin T (cTnT); assay: electrochemical aptasensor (DPV); conditions: 1 ng/mL, negligible current change; 5'-SH-(C6) thiol linker; Aptamer immobilization: 20 mM Tris-HCl, 5 mM MgCl2, 50 mM NaCl, pH 7.4, 4 C; cTnI incubation 1 h (serum samples: 10% serum in 20 mM Tris-HCl, 150 mM NaCl, pH 7.4, 37 C); commercial protein; single-stranded DNA

CGTGCAGTACGCCAACCTTTCTCATGCGCTGCCCCCCTCTTA [Tro4]
Kd [1]: 0.27 nM
binding result [2]: no binding
binding result [3]: no binding
binding result [4]: no binding
